Conditions: 60° C., 92.5% RH, light, 40° C./75% RH and 60° C./75% RH; 5th and 10th day

- Solid stability: change of crystal form (in words): crystal form did not change
SMILES: O=C(Nc1nc2cccc(C3CCC4(CC3)CN(C(=O)[C@@H]3CC3(F)F)C4)n2n1)C1CC1 [crystal form B, (S)—N-(5-(2-(2,2-difluorocyclopropanecarbonyl)-2-azaspiro[3.5]non-7-yl)-[1,2,4]triazole[1,5-a]pyridin-2-yl) cyclopropane formamide]

From US20240033255A1, “ORAL PREPARATION CONTAINING JAK INHIBITOR OR SALT THEREOF OR CRYSTAL FORM THEREOF, PREPARATION METHOD THEREFOR, AND APPLICATION THEREOF” (ZHUHAI UNITED LABORATORIES CO., LTD., priority 2021, published 2024)
